The source of these data is PubChem BioAssay AID445 (National Center for Advancing Translational Sciences (NCATS), 2006).

Structures are written as SMILES. The list shows a part of the results. The main result of the screen is listed elsewhere. These columns were measured beside it and carry no call. The list favours compounds with an active or inconclusive main result. Potencies come from curve fits of mixed quality, noted in brackets.

The AC50 is the concentration giving half of the maximal activity seen.

A short description of the experiment: IkB Signaling. Conditions: ABC-DLBCL IkBa-CBG/CBR dual luciferase ratio (green luciferase fused to IkBa over red control in OCI-Ly3 lymphoma cells), 4 h; measured here: control luc red channel unless noted. Put shortly:
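In this assay, an IκBα–CBG68 fusion accumulates when IKK-driven degradation is blocked; native CBR normalizes for cell number. OCI-Ly3 cells were treated 4 h with compound and doxycycline, then green and red light read after Chroma-Glo addition.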
As for `CCC(C)OC(=O)C1=C(C)NC(=O)CC1c1ccccc1OC` (stereo unspecified), the AC50 was 7.94 µM [falling, partial curve].

`CCOC(=O)c1cc2c(=O)n3ccccc3nc2n(CC(C)C)c1=NC(=O)c1cc2ccccc2o1`: the AC50 is 25.1 µM [falling, partial curve, poor fit].

For the molecule `O=C(CN1C(=O)CC(c2ccccc2)Sc2ccccc21)Nc1cccc(Cl)c1` (stereo unspecified), the AC50 was 0.126 µM [falling, full curve].

For the molecule `CCN(C(=O)Cn1c(=O)oc2cc(Cl)ccc21)c1cccc(C(F)(F)F)c1`, the half-maximal activity concentration (AC50) was 20 µM [falling, partial curve, poor fit].

As to `Cc1ccc(CCNC(=O)C2CCN(c3nnc(-n4cccc4CNc4ccc(C)cc4)s3)CC2)cc1`, the concentration at half-maximal activity (AC50) is 0.126 µM [falling, full curve].

Consider `COc1ccc(/C=C/C(=O)Nc2nc3n(n2)C(c2ccccc2)C=C(c2ccccc2)N3)cc1` (stereo unspecified), for which the half-maximal activity concentration (AC50) was 7.94 µM [falling, partial curve].

In the case of `CN(Cc1ccccc1)C(=O)CSc1nc2ccccc2n1Cc1ccccc1F`, the AC50 is 15.8 µM [falling, partial curve].

As to `CCc1c(C#N)c(SCc2c(C)noc2C)nc2c1C(=O)CC(C)(C)C2`, the concentration at half-maximal activity (AC50) was 25.1 µM [falling, partial curve].

`Cc1sc2c(c1C)c(=O)n(-c1cccc(C(F)(F)F)c1)c(=O)n2Cc1ccc(F)cc1`: the AC50 was 0.0794 µM [rising, full curve, poor fit].

For `COc1ccccc1Cc1nc2ccccc2nc1SCC(=O)Nc1cccc(Cl)c1C`, the concentration at half-maximal activity (AC50) was 6.31 µM [falling, partial curve].

On to `COc1ccccc1N1CCN(C(=O)CCNS(=O)(=O)c2ccc3c(c2)CCN3C(=O)C2CC2)CC1`, for which the AC50 is 0.1 µM [falling, partial curve, poor fit].

With `COc1ccc(Cl)cc1NC(=O)CSC1=Nc2ccccc2C2=NC(CC(=O)NCc3ccc4c(c3)OCO4)C(=O)N12` (stereo unspecified), the AC50 was 20 µM [falling, partial curve].

As to `O=S(=O)(CCOc1ccccc1)c1nc2ccccc2[nH]1`, the concentration at half-maximal activity (AC50) was 5.01 µM [falling, partial curve].

On to `Cc1c(O)c(Br)c(C)c(O)c1Br` (tested in a mixture with another compound), for which the half-maximal activity concentration (AC50) was 3.98 µM [falling, single point].

Regarding `COc1ccccc1C(=O)Nc1ccc2c(c1)nc(CN1CCCCC1)n2C`, the AC50 is 15.8 µM [falling, partial curve].

As to `CCn1c(=O)n(CC)c2cc(N3CCCCC3)c(NC(=O)Nc3ccccc3C(F)(F)F)cc21`, the AC50 is 39.8 µM [falling, single point].

For the molecule `Cc1cc(C)n2nc(SCC(=O)Nc3cccc(C(F)(F)F)c3)nc2n1`, the AC50 was 25.1 µM [falling, partial curve].

With `Cc1ccc(S(=O)(=O)Nc2nc3ccccc3nc2NCc2ccco2)cc1`, the AC50 is 0.0631 µM [falling, full curve].

Regarding `COc1ccc(C(CC(=O)NCc2ccccc2)N2Cc3ccccc3C2=O)cc1` (stereo unspecified), the AC50 was 20 µM [falling, single point].

Regarding `CCC(Oc1ccc(F)cc1)C(=O)Nc1nc(-c2ccc(F)cc2)ns1` (stereo unspecified), the AC50 was 6.31 µM [falling, single point].

For `CCOC(=O)c1ccc(NC(=O)CC2C(=O)N(c3cccc(OC)c3)C(=O)N2Cc2ccc(OC)cc2)cc1` (stereo unspecified), the AC50 was 15.8 µM [falling, partial curve, poor fit].

`COC(=O)CS(=O)(=O)c1nc2ccccc2nc1N1CCCCC1`: the concentration at half-maximal activity (AC50) was 39.8 µM [falling, single point].

Take `CC(C)CCNC(=O)Nc1ccc2c(c1)N(C)C(=O)c1ccccc1S2`: the AC50 was 12.6 µM [falling, single point].

Turning to `Cc1n[nH]c(C)c1S(=O)(=O)N(CC(=O)NC(C)c1ccccc1)c1ccc(C(C)C)cc1` (stereo unspecified), the AC50 is 15.8 µM [falling, partial curve].

In the case of `CS(=O)(=O)N1CCc2cc(C(=O)NCCc3ccccc3)ccc21`, the concentration at half-maximal activity (AC50) was 3.98 µM [rising, partial curve].

Turning to `O=C(Nc1ccc2oc(Cc3ccc(Cl)cc3)nc2c1)c1cccnc1`, the AC50 is 12.6 µM [falling, partial curve].

As for `CC1=Nc2cc(C(=O)NC3CCCC3)ccc2Sc2ccc(C)cc21`, the AC50 is 1 µM [rising, full curve] [measured here: IkB-luc green channel].

Take `Cc1nn(-c2nc(-c3ccc(F)cc3)cc(C(F)(F)F)n2)c(C)c1Br`: the half-maximal activity concentration (AC50) is 12.6 µM [falling, partial curve].

For the molecule `CC1CCC(NC(=O)CC2Oc3ccccc3NC2=O)CC1` (stereo unspecified), the AC50 was 10 µM [falling, partial curve].

Turning to `Cn1c(SCC(=O)c2ccccc2)nnc1C1CC1`, the AC50 is 31.6 µM [rising, partial curve] [measured here: IkB-luc green channel].

Regarding `CCC(=O)Oc1ccc(C/C(=N\O)c2ccc(O)cc2O)o1`, the concentration at half-maximal activity (AC50) was 15.8 µM [falling, partial curve].

With `Cc1nn(-c2ccc(F)cc2)c(-n2cccc2)c1C(=O)NCCCN1CCN(c2ccccc2F)CC1`, the AC50 was 15.8 µM [falling, partial curve].

Consider `CCOc1ccc(Oc2nc(NCC(C)C)nc(NC(C)(C)C)n2)nn1`, for which the AC50 is 3.98 µM [falling, partial curve].

For the molecule `COc1cccc(NC(=O)CCc2c(C)nc3c4cccnc4nn3c2C)c1`, the half-maximal activity concentration (AC50) is 39.8 µM [falling, single point].

`COc1ccccc1OCC(=O)N(Cc1ccc(Cl)cc1)CC1CCCO1` (stereo unspecified): the AC50 was 25.1 µM [falling, single point].

Regarding `CC(=O)c1ccc(NC(=O)CC2Nc3cccc4cccc(c34)NC2=O)cc1` (stereo unspecified), the AC50 is 39.8 µM [falling, single point].

With `CSc1ccc(CCNC(=O)CCCn2nc(C)c3sc4ccccc4c3c2=O)cc1`, the AC50 is 7.94 µM [falling, partial curve].

Take `CCc1cccc(NC(=O)CCS(=O)(=O)c2cc(Br)cc3c2N(C(C)=O)CC3)c1`: the AC50 was 0.1 µM [falling, full curve, poor fit].

Turning to `O=C(CSc1nc2ccccc2nc1Cc1ccccc1)N1CCCCC1`, the half-maximal activity concentration (AC50) is 31.6 µM [falling, partial curve].

Consider `O=C(NCc1ccccc1Cl)c1cc2ccccc2o1`, for which the AC50 is 20 µM [falling, single point].

Turning to `COc1cc(-c2nc3ncccn3c2Nc2ccc(C)cc2C)ccc1O`, the AC50 is 12.6 µM [falling, partial curve].

For the molecule `O=C(CSc1nnc(-c2cccnc2)n1Cc1ccco1)Nc1nc(-c2ccc(F)cc2)cs1`, the AC50 is 20 µM [falling, partial curve].

In the case of `CCOc1ccccc1NC(=O)N1CCN(Cc2nc3ccc(C)cc3o2)CC1`, the AC50 is 5.01 µM [falling, full curve, poor fit].

On to `COc1cc(C(=O)Nc2ccc(S(=O)(=O)N3CCCCC3C)cc2)cc(OC)c1OC` (stereo unspecified), for which the AC50 is 10 µM [falling, partial curve].

For the molecule `CCOc1ccccc1NC(=O)Cn1cnc2sc(C)c(S(=O)(=O)N3CCC(C)CC3)c2c1=O`, the AC50 was 5.01 µM [falling, partial curve].

On to `CCCCOc1cccc(C(=O)Nc2ccc3oc(-c4cccnc4)nc3c2)c1`, for which the AC50 was 12.6 µM [falling, partial curve].

Regarding `COc1ccc(N2CCN(C(=O)CCc3c(C)nc4cc(-c5ccc(Cl)cc5)nn4c3C)CC2)cc1`, the AC50 was 0.0631 µM [falling, full curve].

Consider `Cc1nc2ccccc2c(=O)n1-c1ccc(NC(=O)c2ccc([N+](=O)[O-])cc2)cc1`, for which the AC50 is 3.98 µM [rising, single point].

Take `CCOc1ccc(NCc2cccn2-c2nnc(N3CCC(C(=O)NCCc4ccc(OC)c(OC)c4)CC3)s2)cc1`: the concentration at half-maximal activity (AC50) is 25.1 µM [falling, single point].

With `CCOC(=O)[C@H](CCc1ccccc1)N[C@@H](C)C(=O)N1[C@H](C(=O)O)C[C@H]2CCC[C@@H]21`, the AC50 is 2.51 µM [rising, partial curve].

On to `Cc1ccccc1CNC(=O)C(=O)NCC(c1ccco1)S(=O)(=O)c1ccccc1` (stereo unspecified), for which the AC50 is 5.01 µM [falling, partial curve, poor fit].

Take `CCCS(=O)(=O)N1CCCC(C(=O)NCCCOC)C1` (stereo unspecified): the concentration at half-maximal activity (AC50) is 39.8 µM [falling, partial curve, poor fit].

Regarding `Cc1ccc2[nH]c(CSc3nnc(NC(=O)c4ccccc4C)s3)cc(=O)c2c1`, the AC50 was 25.1 µM [falling, partial curve].

Consider `COc1ccccc1N(CC(=O)Nc1ccc(C)c(Cl)c1)S(=O)(=O)c1ccc(C)cc1`, for which the AC50 was 10 µM [falling, partial curve].

As to `C#CC(C)(CC)NC(=O)c1cc2c(n(-c3ccc(Cl)cc3)c1=O)CC(C)(C)CC2=O` (stereo unspecified), the half-maximal activity concentration (AC50) is 31.6 µM [falling, single point].

Take `CC(=O)N1CCc2cc(Br)cc(S(=O)(=O)N3CCN(c4cc(C)ccc4C)CC3)c21`: the AC50 was 20 µM [falling, partial curve].

`CC(=O)N1c2ccccc2C(=O)C1N1CCN(c2cccc(C(F)(F)F)c2)CC1` (stereo unspecified): the AC50 was 15.8 µM [falling, partial curve].

Take `Cc1ccccc1OCC(=O)N(Cc1ccc(N(C)C)cc1)CC1CCCO1` (stereo unspecified): the AC50 is 31.6 µM [falling, single point].

In the case of `Cc1cccc(CNC(=O)CCCN2C(=O)CCn3nc(-c4cn(C)c5ccccc45)cc32)c1`, the AC50 was 25.1 µM [falling, single point].

Regarding `CCN1CCN(c2c(S(=O)(=O)c3ccccc3)cnc3ccc(Cl)cc23)CC1`, the AC50 is 0.2 µM [falling, full curve, poor fit].

Turning to `CCCc1cc(C(=O)Nc2cccc(Cl)c2)no1`, the AC50 is 6.31 µM [falling, partial curve].
